Measurements reported in PubChem BioAssay AID1259308 (NCATS, 2017).

- Test: 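Genes whose loss raises luciferase production in HEK293 cells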 (primary screen)
- Cells: human HEK293 embryonic kidney cells stably expressing firefly luciferase (HEK-CMV-Luc2-Hygro)
- Reagents: single siRNA against human genes, 0.8 pmol siRNA per well
- Time to read-out: 72 h
- Detection: 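Reporter luminescence and viable-cell signal on separate replicate plates, given as percent of non-targeting control and median/MAD z-scores, plus per-cell luciferase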
- Direction: total luciferase, z-score and total luciferase, % of control: higher = more reporter protein produced; luciferase per cell, z-score: higher = more reporter output per viable cell; viable cells, % of control: higher = more viable cells
- Hit rule: 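An siRNA counts as active if its total luciferase robust z-score exceeds 3; genes with two or more such siRNAs out of three were retested with fresh siRNAs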
- Meaning of the calls: active = raised luciferase; inactive = no rise
Here is an unselected part of about 59,000 reagents tested. In the full data, about 1,510 (2.6%) got an active call. 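Calls use total luciferase alone and ignore viability, so some active siRNAs may act by altering cell number.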 Entries without a mark were called inactive. Reagents against one gene are numbered here.

"total luciferase, z-score","total luciferase, % of control","luciferase per cell, z-score","viable cells, % of control",Target gene,siRNA no.
-2.5,32.1,-1.49,53.2,RPL37A,1
-1.74,47.2,0.692,44,RPL37A,2
-1.51,51.9,-0.308,62.9,RPL37A,3
-0.481,72.3,0.376,73.2,CCER2,1
1.08,103,0.405,104,CCER2,2
1.13,104,1.94,69.9,CCER2,3
1.6,114,1.28,90.7,SCO2,1
0.775,97.3,0.661,91.4,SCO2,2
-1.24,57.3,0.889,50.6,SCO2,3
-0.57,70.6,-0.113,81.2,PPM1J,1
-1.61,49.9,-1.41,80.9,PPM1J,2
-0.874,64.5,-1.65,111,PPM1J,3
0.893,99.7,1.78,69.6,TPRA1,1
1.44,111,1.65,79.9,TPRA1,2
-1.93,43.4,-2.81,102,TPRA1,3
2.66,135,1.81,93.6,RIF1,1
1.76,117,0.945,102,RIF1,2
1.44,111,1,94.9,RIF1,3
-0.713,67.7,-0.855,94.8,APBA2,1
0.0409,82.7,-0.335,101,APBA2,2
-0.693,68.1,-0.596,89,APBA2,3
-0.282,76.3,-0.102,87.6,ICAM4,1
-0.116,79.6,0.146,85.6,ICAM4,2
-0.31,75.7,-0.62,99.6,ICAM4,3
5.37 (active),189,3.29,88.6,NKX3-2,1
3.82 (active),158,2.28,96.9,NKX3-2,2
2.12,124,3.39,56.9,NKX3-2,3
-0.439,73.2,-0.765,100,FAM219A,1
-1.01,61.9,-0.756,84.3,FAM219A,2
-0.362,74.7,-0.483,94.8,FAM219A,3
0.486,91.5,0.0837,100,H2BC18,1
0.645,94.7,0.0323,105,H2BC18,2
-0.387,74.2,-0.971,107,H2BC18,3
-0.468,72.6,-0.714,97.9,NECTIN3,1
-0.839,65.2,-1.16,98.8,NECTIN3,2
0.875,99.3,0.167,106,NECTIN3,3
1.13,104,0.103,114,COXFA4L3,1
0.906,99.9,-0.23,119,COXFA4L3,2
-0.401,73.9,0.794,67,COXFA4L3,3
0.941,101,0.483,99,RCE1,1
-0.975,62.5,0.655,58.8,RCE1,2
0.699,95.8,0.728,88.4,RCE1,3
-0.797,66,1.43,50.6,ZNF780A,1
0.277,87.4,0.153,93.8,ZNF780A,2
-1.2,58.1,-1.35,92.6,ZNF780A,3
0.288,87.6,0.0207,97.4,SSR4,1
-0.159,78.7,0.132,85,SSR4,2
-0.364,74.6,-0.425,93.3,SSR4,3
0.59,93.6,-0.023,105,BICRA,1
-0.905,63.9,-1.35,102,BICRA,2
-0.948,63,-0.904,89.4,BICRA,3
-0.173,78.4,-0.498,99.9,LINGO3,1
1.29,107,0.676,100,LINGO3,2
0.927,100,0.765,91.7,LINGO3,3
-2.64,29.5,-2.65,66.1,RPS29,1
-2.28,36.6,-0.632,48.3,RPS29,2
-2.62,29.8,-2.22,59.8,RPS29,3

Quoted from the entries so far (3 entries):
"total luciferase, z-score","total luciferase, % of control","luciferase per cell, z-score","viable cells, % of control",Target gene,siRNA no.
-0.468,72.6,-0.714,97.9,NECTIN3,1
-0.839,65.2,-1.16,98.8,NECTIN3,2
0.875,99.3,0.167,106,NECTIN3,3
